{
  "source": "patent US8030293B2",
  "about": "“Methods of optimizing drug therapeutic efficacy for treatment of immune-mediated gastrointestinal disorders” (Hopital-Sainte-Justine, priority 1998, dated 2011)",
  "assay": "Erythrocyte 6-MP metabolite levels by reverse phase HPLC in IBD patients on 6-MP drug (Example I)",
  "settings": "Table 1",
  "data": [
    {"smiles": "Nc1nc2nc[nH]c2c(=S)[nH]1", "note": "[6-TG, 6-thioguanine]", "values": [
      {"measurement": "6-TG level associated with remission", "value": "> 225", "unit": "pmol per 8×10^8 RBC"}
    ]}
  ]
}
